# The supplement of paper PMC12067093, “Discovery and optimisation of a covalent ligand for TRIM25 and its application to targeted protein ubiquitination” (Chemical Science, 2025)
# Sequences of proteins named here, by UniProt entry; tags and fusion partners are left off. A change or cut given only in a name is not applied to a line headed by its entry.
# UniProt P55072, whole entry, looked up: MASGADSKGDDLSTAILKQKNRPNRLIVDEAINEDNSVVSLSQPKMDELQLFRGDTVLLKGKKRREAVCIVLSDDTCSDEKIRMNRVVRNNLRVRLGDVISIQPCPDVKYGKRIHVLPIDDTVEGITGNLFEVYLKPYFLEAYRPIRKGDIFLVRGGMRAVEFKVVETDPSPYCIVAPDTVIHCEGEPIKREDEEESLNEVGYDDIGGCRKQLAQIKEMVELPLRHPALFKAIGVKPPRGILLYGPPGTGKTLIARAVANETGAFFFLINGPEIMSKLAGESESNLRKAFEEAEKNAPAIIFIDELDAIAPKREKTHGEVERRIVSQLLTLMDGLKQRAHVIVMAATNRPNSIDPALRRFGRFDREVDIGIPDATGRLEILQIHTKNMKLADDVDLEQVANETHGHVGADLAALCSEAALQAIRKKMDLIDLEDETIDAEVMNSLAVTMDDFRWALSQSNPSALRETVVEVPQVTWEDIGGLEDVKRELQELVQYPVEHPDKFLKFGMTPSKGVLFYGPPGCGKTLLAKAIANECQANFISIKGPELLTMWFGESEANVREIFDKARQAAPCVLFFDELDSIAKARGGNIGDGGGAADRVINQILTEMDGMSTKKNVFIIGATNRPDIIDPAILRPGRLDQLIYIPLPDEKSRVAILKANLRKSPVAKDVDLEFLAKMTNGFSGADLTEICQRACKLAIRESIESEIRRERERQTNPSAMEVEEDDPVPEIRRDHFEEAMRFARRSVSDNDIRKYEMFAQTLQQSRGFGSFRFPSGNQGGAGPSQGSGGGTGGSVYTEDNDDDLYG
# UniProt Q8TED0: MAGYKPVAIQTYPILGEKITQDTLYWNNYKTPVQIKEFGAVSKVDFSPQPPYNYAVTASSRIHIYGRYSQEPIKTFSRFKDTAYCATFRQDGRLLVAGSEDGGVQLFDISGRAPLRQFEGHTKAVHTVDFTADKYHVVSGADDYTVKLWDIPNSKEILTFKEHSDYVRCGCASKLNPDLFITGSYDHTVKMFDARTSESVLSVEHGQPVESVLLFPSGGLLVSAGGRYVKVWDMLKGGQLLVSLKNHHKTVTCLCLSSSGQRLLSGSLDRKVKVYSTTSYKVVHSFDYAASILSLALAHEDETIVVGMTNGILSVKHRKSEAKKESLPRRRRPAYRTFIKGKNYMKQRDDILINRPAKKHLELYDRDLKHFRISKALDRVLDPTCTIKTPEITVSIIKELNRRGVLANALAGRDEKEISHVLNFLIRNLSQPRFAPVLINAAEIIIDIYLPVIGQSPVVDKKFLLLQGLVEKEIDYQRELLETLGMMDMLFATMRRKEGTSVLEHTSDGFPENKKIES
# UniProt Q7Z7G8: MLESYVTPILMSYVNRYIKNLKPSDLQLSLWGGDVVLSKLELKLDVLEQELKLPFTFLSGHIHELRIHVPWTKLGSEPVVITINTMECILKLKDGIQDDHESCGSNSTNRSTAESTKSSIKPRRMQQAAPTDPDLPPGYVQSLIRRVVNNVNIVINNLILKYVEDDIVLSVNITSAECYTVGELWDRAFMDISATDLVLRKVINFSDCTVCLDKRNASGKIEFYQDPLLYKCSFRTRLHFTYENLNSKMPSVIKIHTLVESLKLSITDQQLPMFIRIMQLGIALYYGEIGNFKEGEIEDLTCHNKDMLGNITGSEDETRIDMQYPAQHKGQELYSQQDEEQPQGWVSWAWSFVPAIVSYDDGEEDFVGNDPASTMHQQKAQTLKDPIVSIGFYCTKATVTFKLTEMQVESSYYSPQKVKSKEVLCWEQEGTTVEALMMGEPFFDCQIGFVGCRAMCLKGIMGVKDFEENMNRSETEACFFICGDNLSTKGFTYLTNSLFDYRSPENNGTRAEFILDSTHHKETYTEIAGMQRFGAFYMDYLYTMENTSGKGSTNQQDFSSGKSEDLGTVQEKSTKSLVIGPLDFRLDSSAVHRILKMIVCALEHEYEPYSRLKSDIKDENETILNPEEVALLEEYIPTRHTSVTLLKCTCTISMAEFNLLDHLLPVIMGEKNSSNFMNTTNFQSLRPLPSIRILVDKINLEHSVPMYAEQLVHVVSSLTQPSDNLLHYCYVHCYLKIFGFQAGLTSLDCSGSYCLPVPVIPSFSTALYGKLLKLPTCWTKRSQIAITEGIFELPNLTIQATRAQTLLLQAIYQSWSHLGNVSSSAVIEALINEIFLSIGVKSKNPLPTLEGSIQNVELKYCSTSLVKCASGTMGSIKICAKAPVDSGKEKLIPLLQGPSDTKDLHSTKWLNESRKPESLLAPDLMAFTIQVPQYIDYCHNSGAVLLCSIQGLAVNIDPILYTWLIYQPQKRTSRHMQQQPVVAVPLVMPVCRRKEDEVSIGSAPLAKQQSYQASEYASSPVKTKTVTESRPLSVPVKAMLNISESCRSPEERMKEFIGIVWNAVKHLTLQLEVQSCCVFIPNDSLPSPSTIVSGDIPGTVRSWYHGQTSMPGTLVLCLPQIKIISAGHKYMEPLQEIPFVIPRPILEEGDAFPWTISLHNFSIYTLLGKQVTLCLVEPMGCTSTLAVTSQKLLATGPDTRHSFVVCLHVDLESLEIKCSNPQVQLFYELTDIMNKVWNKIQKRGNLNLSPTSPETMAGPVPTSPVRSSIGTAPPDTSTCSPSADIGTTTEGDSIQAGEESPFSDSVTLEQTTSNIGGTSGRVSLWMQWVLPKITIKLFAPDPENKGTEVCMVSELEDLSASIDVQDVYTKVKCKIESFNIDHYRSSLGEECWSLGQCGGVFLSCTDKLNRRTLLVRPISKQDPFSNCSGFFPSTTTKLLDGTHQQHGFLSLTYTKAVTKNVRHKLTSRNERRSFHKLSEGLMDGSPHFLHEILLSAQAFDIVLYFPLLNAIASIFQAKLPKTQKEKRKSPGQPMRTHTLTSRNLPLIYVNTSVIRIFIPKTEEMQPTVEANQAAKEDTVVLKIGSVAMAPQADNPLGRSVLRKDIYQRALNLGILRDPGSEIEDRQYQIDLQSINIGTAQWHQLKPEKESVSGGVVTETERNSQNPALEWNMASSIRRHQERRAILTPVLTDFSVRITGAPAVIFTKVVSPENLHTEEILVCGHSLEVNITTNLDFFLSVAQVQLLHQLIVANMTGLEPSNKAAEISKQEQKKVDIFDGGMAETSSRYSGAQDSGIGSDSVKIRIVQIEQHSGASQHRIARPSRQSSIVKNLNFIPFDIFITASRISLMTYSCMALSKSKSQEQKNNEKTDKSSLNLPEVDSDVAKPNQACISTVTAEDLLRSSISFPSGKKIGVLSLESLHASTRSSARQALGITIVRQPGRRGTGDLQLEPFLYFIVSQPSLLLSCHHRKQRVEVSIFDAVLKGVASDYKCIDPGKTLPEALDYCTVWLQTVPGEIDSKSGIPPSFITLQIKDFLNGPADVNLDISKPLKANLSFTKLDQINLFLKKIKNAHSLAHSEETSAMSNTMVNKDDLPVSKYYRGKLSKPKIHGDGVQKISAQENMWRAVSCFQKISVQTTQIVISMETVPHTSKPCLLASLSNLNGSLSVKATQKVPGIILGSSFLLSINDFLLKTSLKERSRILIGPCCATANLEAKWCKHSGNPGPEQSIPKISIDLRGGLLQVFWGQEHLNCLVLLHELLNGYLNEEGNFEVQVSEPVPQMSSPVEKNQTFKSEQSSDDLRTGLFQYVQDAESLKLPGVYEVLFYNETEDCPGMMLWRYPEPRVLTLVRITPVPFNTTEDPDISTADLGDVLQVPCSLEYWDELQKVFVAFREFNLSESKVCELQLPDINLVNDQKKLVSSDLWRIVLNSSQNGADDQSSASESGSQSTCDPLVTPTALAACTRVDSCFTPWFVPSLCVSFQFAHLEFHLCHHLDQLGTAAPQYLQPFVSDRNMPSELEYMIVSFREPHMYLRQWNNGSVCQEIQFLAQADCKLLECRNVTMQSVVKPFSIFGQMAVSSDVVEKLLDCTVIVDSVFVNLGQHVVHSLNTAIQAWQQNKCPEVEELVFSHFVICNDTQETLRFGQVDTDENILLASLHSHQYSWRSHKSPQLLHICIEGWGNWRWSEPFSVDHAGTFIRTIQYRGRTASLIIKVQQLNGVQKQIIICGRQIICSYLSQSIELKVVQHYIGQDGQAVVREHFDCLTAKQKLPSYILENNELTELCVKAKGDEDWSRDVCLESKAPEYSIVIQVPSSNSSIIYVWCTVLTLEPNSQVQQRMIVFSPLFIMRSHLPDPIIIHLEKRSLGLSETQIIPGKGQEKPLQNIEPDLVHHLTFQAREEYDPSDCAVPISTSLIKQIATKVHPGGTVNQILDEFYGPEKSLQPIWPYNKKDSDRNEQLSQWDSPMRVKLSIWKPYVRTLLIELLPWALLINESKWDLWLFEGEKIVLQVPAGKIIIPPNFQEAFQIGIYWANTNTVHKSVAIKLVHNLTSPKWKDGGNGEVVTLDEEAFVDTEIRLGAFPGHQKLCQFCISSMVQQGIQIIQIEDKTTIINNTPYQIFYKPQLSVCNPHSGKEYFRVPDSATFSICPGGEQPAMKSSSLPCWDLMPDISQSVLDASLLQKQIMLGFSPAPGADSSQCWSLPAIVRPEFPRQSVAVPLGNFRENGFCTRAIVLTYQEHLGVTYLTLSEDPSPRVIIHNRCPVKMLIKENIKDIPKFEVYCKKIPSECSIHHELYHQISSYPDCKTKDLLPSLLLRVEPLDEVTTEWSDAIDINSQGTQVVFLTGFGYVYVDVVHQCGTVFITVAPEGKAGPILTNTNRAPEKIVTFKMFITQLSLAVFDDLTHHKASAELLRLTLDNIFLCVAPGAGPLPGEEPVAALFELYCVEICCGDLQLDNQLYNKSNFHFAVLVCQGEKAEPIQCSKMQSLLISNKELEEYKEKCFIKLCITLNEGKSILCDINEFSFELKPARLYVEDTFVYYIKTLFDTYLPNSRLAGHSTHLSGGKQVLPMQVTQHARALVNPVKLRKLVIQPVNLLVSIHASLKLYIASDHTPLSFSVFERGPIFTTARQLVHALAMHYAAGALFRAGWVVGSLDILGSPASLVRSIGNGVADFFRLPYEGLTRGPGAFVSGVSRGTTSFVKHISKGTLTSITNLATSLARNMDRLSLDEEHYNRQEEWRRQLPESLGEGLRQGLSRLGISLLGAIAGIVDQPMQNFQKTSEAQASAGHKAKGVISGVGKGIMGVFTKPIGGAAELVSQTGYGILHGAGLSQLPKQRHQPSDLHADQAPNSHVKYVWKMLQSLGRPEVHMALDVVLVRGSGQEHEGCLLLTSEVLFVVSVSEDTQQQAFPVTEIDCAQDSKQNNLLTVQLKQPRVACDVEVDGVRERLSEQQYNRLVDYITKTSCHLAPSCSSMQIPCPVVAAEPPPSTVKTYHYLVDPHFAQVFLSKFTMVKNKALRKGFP
# UniProt O95292, whole entry, looked up: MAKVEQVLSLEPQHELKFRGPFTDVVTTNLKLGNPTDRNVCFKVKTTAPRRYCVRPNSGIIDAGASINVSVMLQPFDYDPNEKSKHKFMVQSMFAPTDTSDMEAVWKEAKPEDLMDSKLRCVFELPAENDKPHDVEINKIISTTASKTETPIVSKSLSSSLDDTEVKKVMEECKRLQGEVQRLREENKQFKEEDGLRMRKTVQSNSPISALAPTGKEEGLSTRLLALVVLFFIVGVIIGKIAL
# UniProt P52735: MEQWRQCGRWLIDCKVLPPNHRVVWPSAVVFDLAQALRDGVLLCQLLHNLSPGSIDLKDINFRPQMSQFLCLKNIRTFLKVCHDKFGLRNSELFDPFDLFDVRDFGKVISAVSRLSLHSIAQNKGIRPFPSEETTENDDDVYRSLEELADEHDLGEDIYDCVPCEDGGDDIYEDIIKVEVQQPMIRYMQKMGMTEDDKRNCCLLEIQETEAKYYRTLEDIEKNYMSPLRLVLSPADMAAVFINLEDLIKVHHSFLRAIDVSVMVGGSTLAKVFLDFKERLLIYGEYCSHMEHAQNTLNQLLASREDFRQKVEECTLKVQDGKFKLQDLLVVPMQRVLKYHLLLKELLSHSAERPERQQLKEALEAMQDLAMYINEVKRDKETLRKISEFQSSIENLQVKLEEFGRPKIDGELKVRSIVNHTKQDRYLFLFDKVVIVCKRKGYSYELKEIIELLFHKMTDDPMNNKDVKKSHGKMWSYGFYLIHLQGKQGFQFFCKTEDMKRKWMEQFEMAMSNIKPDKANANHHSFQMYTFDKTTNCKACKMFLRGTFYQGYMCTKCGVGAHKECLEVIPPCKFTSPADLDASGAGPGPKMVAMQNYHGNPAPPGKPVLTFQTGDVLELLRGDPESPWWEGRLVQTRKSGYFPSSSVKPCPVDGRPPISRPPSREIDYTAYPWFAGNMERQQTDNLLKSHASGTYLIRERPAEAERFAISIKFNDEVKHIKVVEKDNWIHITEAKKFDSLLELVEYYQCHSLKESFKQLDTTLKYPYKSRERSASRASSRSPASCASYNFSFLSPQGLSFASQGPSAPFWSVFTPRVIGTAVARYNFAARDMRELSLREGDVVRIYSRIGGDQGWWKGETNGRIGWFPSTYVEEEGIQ
# Some of the results follow.
# Compound: CC1Cc2ccccc2N1C(=O)C1CCCN(C1)C(=O)CCl (mixture of isomers) [TRIM25 ligand 11 (diastereomer mixture)]
# Assay: probe-labelled cysteine peptide fold change vs DMSO (competition) (log2 fold change); higher = less target engagement (more negative = stronger competition)
# Settings: 10 µM; THP-1; incubation time: 4 h
# 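Also: competitive chemoproteomic profiling in live THP-1 cells with an iodoacetamide desthiobiotin (IA-DTB) probe, comparing probe-labelled peptide intensities in compound-treated cells against DMSO-treated controls.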
row,Target,probe-labelled cysteine peptide fold change
1,VPS13C_Q709C8_2395_SCLNVFNNLAK (UniProt Q709C8),0.0796
2,UXS1_Q8NBZ7_242_VAETMCYAYMK (UniProt Q8NBZ7),-0.0496
3,WAC_Q9BTA9_615_VCEIQATLR (UniProt Q9BTA9),0.122
4,VPS53_Q5VIR6-4_685_CKPISMVGAEQLLLDTHSLK (UniProt Q5VIR6),-0.0744
5,VCP_P55072_105_LGDVISIQPCPDVK (UniProt P55072),-0.0602
6,UTP15_Q8TED0_85_DTAYCATFR (UniProt Q8TED0),0.046
7,VPS13C_Q709C8_1998_TCTLDDLR (UniProt Q709C8),0.173
8,USP8_P40818_939_STVQCLTCHKK (UniProt P40818),-0.127
9,VPS26B_Q4G0F5_334_TPSQLSDNNCRQ (UniProt Q4G0F5),-0.0785
10,UVRAG_Q9P2Y5_186_TILLQVDQNCVR (UniProt Q9P2Y5),-0.0211
11,VEZF1_Q14119_319_THGQSQSINCNTCK (UniProt Q14119),-0.137
12,VPS53_Q5VIR6_321_IAVEFCHVTR (UniProt Q5VIR6),0.0366
13,USP9X_Q93008_1451_KFHIGCEK (UniProt Q93008),0.0359
14,VARS_P26640_41_ICLQPPPTSR (UniProt P26640),0.0116
15,USP9Y_O00507_1735_ICQGCPHRYECEESFTTLNVDIR (UniProt O00507),-0.133
16,VPS13B_Q7Z7G8_1993_CIDPGK (UniProt Q7Z7G8),-0.05
17,VPS16_Q9H269_271_QMVWCSRPR (UniProt Q9H269),-0.169
18,VPS45_Q9NRW7_359_NLLEVSEVEQELACQNDHSSALQNIKR (UniProt Q9NRW7),-0.0897
19,USP8_P40818_988_FYCSHCR (UniProt P40818),0.0334
20,UTP18_Q9Y5J1_90_CLEELVFGDVENDEDALLRR (UniProt Q9Y5J1),-0.132

row,Target,probe-labelled cysteine peptide fold change
1,VPS8_Q8N3P4_564_KCPDQGK (UniProt Q8N3P4),0.103
2,VRK3_Q8IV63_418_FVDKPGPFVGPCGHWIRPSETLQK (UniProt Q8IV63),-0.127
3,VPS16_Q9H269_408+422_CFLDRFPPDSFVHMCQDLR (UniProt Q9H269),0.0649
4,VKORC1L1_Q8N0U8_50_ALCDLGPWVK (UniProt Q8N0U8),0.0699
5,UTP20_O75691_2571_VLYLLELYCEDK (UniProt O75691),0.207
6,UTP23_Q9BRU9_35_EPYQILLDGTFCQAALR (UniProt Q9BRU9),-0.223
7,VPS35_Q96QK1_137_DLVEMCR (UniProt Q96QK1),0.0601
8,VWA8_A3KMH1_858_APTNVTCILK (UniProt A3KMH1),0.165
9,VTA1_Q9NP79_87_QLGDNEAITQEIVGCAHLENYALK (UniProt Q9NP79),0.00313
10,VPS4B_O75351_240_ENKPSIIFIDEIDSLCGSR (UniProt O75351),-0.0128
11,VAPB_O95292_121_CVFELPAENDKPHDVEINK (UniProt O95292),-0.0428
12,VAV2_P52735_557_CGVGAHK (UniProt P52735),0.0102
13,VPS33B_Q9H267_259_CGSVDFGPEVTSSDK (UniProt Q9H267),0.178
14,WAPL_Q7Z5K2_719_TLDDSQHHQNLSLCTAALMYILSR (UniProt Q7Z5K2),-0.0493
15,VLDLR_P98155_97_CDGDPDCEDGSDESPEQCHMR (UniProt P98155),0.108
16,USP8_P40818_214_RMQDYQDSCILHSLSVPEEAISPGVTASWIEAHLPDDSK (UniProt P40818),0.302
17,VPS16_Q9H269_36_KYELYSMDWDLKEELRDCLVAAAPYGGPIALLR (UniProt Q9H269),-0.407
18,USP9Y_O00507_1773_GDLLEGANAYHCEK (UniProt O00507),0.0156
19,UTP15_Q8TED0_385_VLDPTCTIK (UniProt Q8TED0),0.0337

# Same assay, conditions: 50 µM; THP-1; incubation time: 4 h
row,Target,probe-labelled cysteine peptide fold change
1,VPS13C_Q709C8_2395_SCLNVFNNLAK (UniProt Q709C8),0.107
2,UXS1_Q8NBZ7_242_VAETMCYAYMK (UniProt Q8NBZ7),-0.176
3,WAC_Q9BTA9_615_VCEIQATLR (UniProt Q9BTA9),0.275
4,VPS53_Q5VIR6-4_685_CKPISMVGAEQLLLDTHSLK (UniProt Q5VIR6),0.0731
5,VCP_P55072_105_LGDVISIQPCPDVK (UniProt P55072),-0.113
6,UTP15_Q8TED0_85_DTAYCATFR (UniProt Q8TED0),0.0662
7,VPS13C_Q709C8_1998_TCTLDDLR (UniProt Q709C8),0.14
8,USP8_P40818_939_STVQCLTCHKK (UniProt P40818),-0.0772
9,VPS26B_Q4G0F5_334_TPSQLSDNNCRQ (UniProt Q4G0F5),-0.231
10,UVRAG_Q9P2Y5_186_TILLQVDQNCVR (UniProt Q9P2Y5),0.144
11,VEZF1_Q14119_319_THGQSQSINCNTCK (UniProt Q14119),-0.311
12,VPS53_Q5VIR6_321_IAVEFCHVTR (UniProt Q5VIR6),0.00229
13,USP9X_Q93008_1451_KFHIGCEK (UniProt Q93008),-0.0114
14,VARS_P26640_41_ICLQPPPTSR (UniProt P26640),-0.12
15,USP9Y_O00507_1735_ICQGCPHRYECEESFTTLNVDIR (UniProt O00507),-0.0638
16,VPS13B_Q7Z7G8_1993_CIDPGK (UniProt Q7Z7G8),-0.0208
17,VPS16_Q9H269_271_QMVWCSRPR (UniProt Q9H269),0.0158
18,VPS45_Q9NRW7_359_NLLEVSEVEQELACQNDHSSALQNIKR (UniProt Q9NRW7),-0.203
19,USP8_P40818_988_FYCSHCR (UniProt P40818),0.112
20,UTP18_Q9Y5J1_90_CLEELVFGDVENDEDALLRR (UniProt Q9Y5J1),-0.135

row,Target,probe-labelled cysteine peptide fold change
1,VPS8_Q8N3P4_564_KCPDQGK (UniProt Q8N3P4),0.0855
2,VRK3_Q8IV63_418_FVDKPGPFVGPCGHWIRPSETLQK (UniProt Q8IV63),-0.248
3,VPS16_Q9H269_408+422_CFLDRFPPDSFVHMCQDLR (UniProt Q9H269),-0.065
4,VKORC1L1_Q8N0U8_50_ALCDLGPWVK (UniProt Q8N0U8),-0.0064
5,UTP20_O75691_2571_VLYLLELYCEDK (UniProt O75691),0.37
6,UTP23_Q9BRU9_35_EPYQILLDGTFCQAALR (UniProt Q9BRU9),0.152
7,VPS35_Q96QK1_137_DLVEMCR (UniProt Q96QK1),-0.0105
8,VWA8_A3KMH1_858_APTNVTCILK (UniProt A3KMH1),0.211
9,VTA1_Q9NP79_87_QLGDNEAITQEIVGCAHLENYALK (UniProt Q9NP79),0.0507
10,VPS4B_O75351_240_ENKPSIIFIDEIDSLCGSR (UniProt O75351),-0.181
11,VAPB_O95292_121_CVFELPAENDKPHDVEINK (UniProt O95292),-0.126
12,VAV2_P52735_557_CGVGAHK (UniProt P52735),0.111
13,VPS33B_Q9H267_259_CGSVDFGPEVTSSDK (UniProt Q9H267),0.27
14,WAPL_Q7Z5K2_719_TLDDSQHHQNLSLCTAALMYILSR (UniProt Q7Z5K2),-0.134
15,VLDLR_P98155_97_CDGDPDCEDGSDESPEQCHMR (UniProt P98155),-0.0603
16,USP8_P40818_214_RMQDYQDSCILHSLSVPEEAISPGVTASWIEAHLPDDSK (UniProt P40818),0.254
17,VPS16_Q9H269_36_KYELYSMDWDLKEELRDCLVAAAPYGGPIALLR (UniProt Q9H269),-0.0887
18,USP9Y_O00507_1773_GDLLEGANAYHCEK (UniProt O00507),0.00717
19,UTP15_Q8TED0_385_VLDPTCTIK (UniProt Q8TED0),0.183
